For 69 sequences, median seed-adjusted z-score results are on record in PubChem BioAssay AID1347426 (Functional Genomics Laboratory (NCATS/FGL), 2020).

Screen size: about 31,000 sequences; about 1,400 (4.5%) were called active.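 Rule for the calls: active = median seed-adjusted z-score above 1 or below -1; inactive = the rest.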 This is one part of the list.

This test can be described thus: Novel Modifiers of Survival Motor Neuron (SMN) Protein: Gene Identification via Genome-wide siRNA Screen.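 Note: luminescence tracks full-length SMN protein made from the SMN2 reporter.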 The settings on record: HEK293T SMN2-luciferase reporter, siRNA knockdown, 72 h; actives lie on both sides. The procedure, abridged:
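siRNA screen, 10418 genes ×3 siRNAs; 1 pmol/well, lipid reverse transfection into HEK293T SMN2-luc reporter line. 72 h, 37 °C, 5% CO2; ONE-Glo readout. Data: neg-ctrl normalized, log10, MAD; hit = MAD >1.0 or < -1.0.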
With CGUGUGAACCAUCCUAAUATT against MAP3K7, the median seed-adjusted z-score is inactive: -0.23. The same measure for GCAUCGUCACUGUCAUGAATT against ITPR3: active: -1.28. The value for GCUCCAAAAGAGAUAAACATT against RGS2 was inactive: 0.00236; that for AAAGACCAGUGAACACUCATT against GPR42 was inactive: -0.0972; that for GGAGAGGUUCAAAUGCAUUTT against RAB34 was inactive: 0.342.

For CUAUAUCCAGAGACCUCUATT against CA10, the median seed-adjusted z-score is inactive: 0.255. The value for ACCUUUAACUGGUCCACAATT against ZNF138 was inactive: -0.0937; that for AGCCCUUGACCUUAUCUAATT against CSTB was active: 1.08; that for CUAAAGAUCAUGAAAGUGATT against MLX was inactive: 0.126.

Regarding GGACCAAGACAAGAUUGAATT against TRAF2, the median seed-adjusted z-score was inactive: -0.00463. The value for GCCUUGUAAAAAUCAACUUTT against ZNF528 was inactive: -0.0746; that for GCACGCUGGUUUCUGCUUGTT against TNFRSF6B was inactive: 0.0458. As to GCUUUAGAGUUCCAUAUGATT against PIK3CG, the median seed-adjusted z-score is inactive: 0.576. The same measure for CAUGCACGGAGAGCCCAAATT against RPUSD3: inactive: 0.303. The value for GCCCUUCGAUGGUUUCGAUTT against NUAK1 was inactive: -0.197; that for GGCGAAAUCCGAGAGACCATT against AP2S1 was inactive: 0.146; that for GCACCAAGAAUAUCCGCUATT against SLC9A4 was inactive: 0.693.

GCAGUUCCGGAGACUCUUUTT against CAPNS1: the median seed-adjusted z-score was inactive: 0.35.

Turning to GGACCAUUUAAAGAUACUATT against CDH10, the median seed-adjusted z-score was inactive: 0. The value for GGAAGUACAGAUGCCCAUATT against LDLRAD2 was inactive: -0.459; that for AGAUACUGGUAUUGCUCGATT against SNRPB was active: -3.17; that for GGAUGAAGAUAGCAUCAGATT against TP63 was inactive: -0.129. For the sequence GGACUUUUACACCACCUUUTT against NRXN2, the median seed-adjusted z-score is inactive: -0.485. With GCAUCACCUUCACGGGCAATT against SPON2, the median seed-adjusted z-score was inactive: 0. The same measure for GGCGAAGAAAUGUCCAUGATT against POMT1: inactive: 0.327; for CAUGUUCACUGCUACCGAUTT against LPP: inactive: -0.103; for AGCUACUAGUGGAGCAGAATT against BAT1: active: -1.49. As to AAUUCUACACUUUCCUAAATT against GPX3, the median seed-adjusted z-score is inactive: 0.193. Take GUGACUCACUUAUUCAAGATT against PSMA6: the median seed-adjusted z-score is inactive: -0.768. As to GAAAUAGACAUGAAGGUUATT against GUCY1B3, the median seed-adjusted z-score was inactive: -0.19. Turning to UGCAGAACCAGUAUCCUGATT against GSC2, the median seed-adjusted z-score was inactive: -0.0829. On to UCCAGACUCUGGUCACCAATT against CREB3L1, for which the median seed-adjusted z-score was inactive: 0.708. As for GGACAAAGGUUCCUCAGGATT against ZFP41, the median seed-adjusted z-score was inactive: 0. The same measure for GAACAAACGGGAAUAUGAATT against UBE2A: inactive: 0.306; for CACUACUUGGUAUUGAAUATT against SLC25A27: inactive: 0.0916; for AGAAUACUAUGACCAGACATT against TNFRSF1B: inactive: -0.483. With GAUCAUUGAGAACACGUAUTT against RNF121, the median seed-adjusted z-score is inactive: -0.53.

On to CCUUUACGUUCAAAUCACATT against ZNF268, for which the median seed-adjusted z-score was inactive: 0.0358. The value for GCCUUGACCUUGAAGACCATT against MCF2L2 was inactive: -0.465; that for CGUUCACGUUGAAUAUGAATT against DDEF2 was inactive: 0.438; that for GGUCAGCUGGUAUUAAGGATT against USP1 was inactive: -0.564. Take GCCUACACCUCAGUCCUAATT against DPH5: the median seed-adjusted z-score is inactive: 0.

On to GAAUAUUGAAAGUUACAGATT against LRP12, for which the median seed-adjusted z-score was inactive: 0.416. The same measure for CAUCUUUCCCAAUGCCGAATT against EGR2: inactive: -0.37; for GAAUCACUCUUUGACAACATT against SLC2A13: inactive: -0.0451.

Take CCAUGGCAGUACCAACUAGTT against CREM: the median seed-adjusted z-score was active: -2.37. For the sequence GGCGGUAUAUCUCCAGUAATT against LRBA, the median seed-adjusted z-score is inactive: 0.219. On to GCUACGUGGUGCCCUGUAATT against SOX14, for which the median seed-adjusted z-score was inactive: -0.296.

As to CAAAGGAAACCAACAAUAATT against BIRC5, the median seed-adjusted z-score was inactive: 0.0236. The same measure for GGAGGAAAAAUCAUACCAATT against UGT3A1: inactive: 0.864; for GGCAUUAAAUUGGUGCGAATT against LNX2: inactive: 0; for CUAUGUGAACAAUCGAAUATT against ATP10D: inactive: -0.35. With ACUUAAACGUGUCCCAUGATT against DUSP28, the median seed-adjusted z-score was inactive: 0. The value for GACCAAGACCAAUGCAUAATT against HP was inactive: 0; that for GCUGUUCGGCUUCACCCUATT against WFDC2 was inactive: -0.466; that for GUAGUACAAUUGUCAGACATT against KITLG was inactive: 0.119. For the sequence GGAUAAUUUUGCCUACCUUTT against GALNTL1, the median seed-adjusted z-score is inactive: -0.234. The value for GCAAGCCUAUAGUCAUUGATT against LGI1 was inactive: -0.19. GCAACAGAAGAAUCCUGUATT against CTSL1: the median seed-adjusted z-score was inactive: 0.378. With GCUGUGAUAUGAUAGAUGUTT against RRAGD, the median seed-adjusted z-score was inactive: 0.313. The same measure for CCGUUGUUGUAAGAAGAAATT against MICA: inactive: -0.0635; for GGAAGAUCCACACCCUAAATT against ZNF70: inactive: -0.558.

As to GGAUCACUCUAUGAUUACATT against ZAK, the median seed-adjusted z-score was inactive: -0.113. The same measure for GGAUAUAAUGAGAUAUGUUTT against ETF1: active: -1.12; for CCUUCUCACGCAGCACUGUTT against INHA: inactive: 0.231; for ACAAUACCCUCAGACUGAATT against NMUR1: inactive: -0.265. Take CAAGGAUCUCUGUCGGGUATT against DNAJC13: the median seed-adjusted z-score is inactive: -0.12.

In the case of GUAUCUACGGAGCCCUCAATT against SLC25A37, the median seed-adjusted z-score is inactive: -0.0821. The value for GGAUAACAGGAAUCGAUCATT against SLC23A2 was inactive: -0.0585.
